Test results published in publication PMC11721587, “Morphogen-induced kinase condensates transduce Hh signal by allosterically activating Gli” (Science Advances, 2025).

Target: Sufu (Drosophila (endogenous in Cl8))
Assay: co-IP; sequential IP of endogenous proteins from cytoplasmic and nuclear fractions of Cl8 cells with Hh-conditioned or control medium, 5 nM LMB; first IP anti-Ci (2A1), eluted with GST-Ci 700-850; second IP anti-Sufu (25H3)

binding: binds
B1: fused (Fu) (enzyme, Drosophila (endogenous in Cl8), UniProt P23647 1-805, looked up)
chain: MNRYAVSSLVGQGSFGCVYKATRKDDSKVVAIKVISKRGRATKELKNLRRECDIQARLKHPHVIEMIESFESKTDLFVVTEFALMDLHRYLSYNGAMGEEPARRVTGHLVSALYYLHSNRILHRDLKPQNVLLDKNMHAKLCDFGLARNMTLGTHVLTSIKGTPLYMAPELLAEQPYDHHADMWSLGCIAYESMAGQPPFCASSILHLVKMIKHEDVKWPSTLTSECRSFLQGLLEKDPGLRISWTQLLCHPFVEGRIFIAETQAEAAKESPFTNPEAKVKSSKQSDPEVGDLDEALAALDFGESRQENLTTSRDSINAIAPSDVEHLETDVEDNMQRVVVPFADLSYRDLSGVRAMPMVHQPVINSHTCFVSGNSNMILNHMNDNFDFQASLRGGGVAAKPIVAPTVRQSRSKDLEKRKLSQNLDNFSVRLGHSVDHEAQRKATEIATQEKHNQENKPPAEAISYANSQPPQQQPQQLKHSMHSTNEEKLSSDNTPPCLLPGWDSCDESQSPPIENDEWLAFLNRSVQELLDGELDSLKQHNLVSIIVAPLRNSKAIPRVLKSVAQLLSLPFVLVDPVLIVDLELIRNVYVDVKLVPNLMYACKLLLSHKQLSDSAASAPLTTGSLSRTLRSIPELTVEELETACSLYELVCHLVHLQQQFLTQFCDAVAILAASDLFLNFLTHDFRQSDSDAASVRLAGCMLALMGCVLRELPENAELVERIVFNPRLNFVSLLQSRHHLLRQRSCQLLRLLARFSLRGVQRIWNGELRFALQQLSEHHSYPALRGEAAQTLDEISHFTFFVT
notes: Fu Ser/Thr kinase, Drosophila, endogenous in Cl8 cells; After Hh it is phosphorylated (T158/S159, S482) and SUMO-conjugated; the SDS-resistant dimer is called mature Fu; also called endogenous Fu; mature Fu; source: endogenous, Cl8 cells (fractions, lysates)

No constants are given. Whether binding was seen depends on the method and setting. In cells and extracts the contact can be indirect. A result given as binding can be weak or reduced; the word gives no strength. Sequences can lack the tags named with a protein.
